PubChem BioAssay AID493246, Drosophila RNAi Screening Center | 2011
Aim: 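Identify essential fly genes by loss of cell viability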 (primary screen). Cells: Drosophila Kc and S2R+ cells. Knock-down reagent: long dsRNA against Drosophila genes. Measurement: 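Cell number per well after knock-down, printed as raw plate values; calls were based on per-plate z-scores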. Direction: Kc cell number and S2R+ cell number: higher = more cells remaining. Rule for the call: 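Active when the per-plate z-score of cell number is 3 or more in the direction of fewer cells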.
In all, the deposit lists about 21,000 reagents; this is a random part of those that have a named target and a result. Over the whole deposit, 429 (2%) were called active. 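Values are raw and not normalised between plates; calls rest on per-plate z-scores that were not deposited.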 A number with no mark means an inactive call. Not given: the amount of reagent, the time to read-out.

| target | dsRNA | Kc cell number, rep 1 | Kc cell number, rep 2 | S2R+ cell number, rep 1 | S2R+ cell number, rep 2 |
| --- | --- | --- | --- | --- | --- |
| CG1827 | DRSC06719 | 1.31e6 | 1.34e6 | 1.01e6 | 1.06e6 |
| CG6415 | DRSC02954 | 1.10e6 | 1.09e6 | 9.51e5 | 8.26e5 |
| kar | DRSC14496 | 1.46e6 | 1.49e6 | 1.26e6 | 1.35e6 |
| CG17764 | DRSC18135 | 1.50e6 | 1.62e6 | 1.04e6 | 1.15e6 |
| Gbp2 | DRSC06069 | 1.42e6 | 1.48e6 | 1.11e6 | 1.00e6 |
| CG3213 | DRSC00576 | 1.66e6 | 1.48e6 | 1.08e6 | 1.25e6 |
| bonsai | DRSC04453 | 1.43e6 | 1.59e6 | 1.22e6 | 1.29e6 |
| Hsp26 | DRSC11189 | 1.32e6 | 1.37e6 | 1.24e6 | 1.25e6 |
| Nplp3 | DRSC09944 | 1.48e6 | 1.49e6 | 1.23e6 | 1.42e6 |
| Pi3K92E | DRSC16788 | 1.54e6 | 1.67e6 | 1.20e6 | 1.27e6 |
| Con | DRSC08652 | 1.48e6 | 1.63e6 | 1.37e6 | 1.17e6 |
| CG5162 | DRSC19935 | 1.54e6 | 1.55e6 | 1.18e6 | 1.33e6 |
| CG32719 | DRSC17525 | 1.38e6 | 1.63e6 | 1.18e6 | 1.23e6 |
| nito | DRSC05943 | 1.46e6 | 1.54e6 | 9.90e5 | 1.13e6 |
| bdg | DRSC07136 | 1.41e6 | 1.42e6 | 1.12e6 | 1.07e6 |
| LManVI | DRSC03224 | 1.59e6 | 1.64e6 | 1.06e6 | 1.20e6 |
| Tsp42Ek | DRSC06187 | 1.43e6 | 1.53e6 | 1.24e6 | 1.34e6 |
| CG32628 (retired record) | DRSC19405 | 1.78e6 | 1.56e6 | 1.11e6 | 1.27e6 |
| cdm | DRSC16213 | 1.69e6 | 1.94e6 | 1.31e6 | 1.41e6 |
| Sptz | DRSC15758 | 1.76e6 | 1.80e6 | 1.41e6 | 1.46e6 |
| qkr58E-2 | DRSC04710 | 1.64e6 | 1.73e6 | 1.27e6 | 1.44e6 |
| Nab2 | DRSC14158 | 1.78e6 | 1.83e6 | 1.35e6 | 1.37e6 |
| Ir40a | DRSC03732 | 1.50e6 | 1.59e6 | 1.35e6 | 3.26e5 |
| Ir40a | DRSC03733 | 1.48e6 | 1.58e6 | 1.32e6 | 3.22e5 |

Ordered by “Kc cell number, rep 2” (lowest first): 3 of the entries above.
| target | dsRNA | Kc cell number, rep 1 | Kc cell number, rep 2 | S2R+ cell number, rep 1 | S2R+ cell number, rep 2 |
| --- | --- | --- | --- | --- | --- |
| Gbp2 | DRSC06069 | 1.42e6 | 1.48e6 | 1.11e6 | 1.00e6 |
| CG3213 | DRSC00576 | 1.66e6 | 1.48e6 | 1.08e6 | 1.25e6 |
| CG17764 | DRSC18135 | 1.50e6 | 1.62e6 | 1.04e6 | 1.15e6 |
